The source of these data is publication PMC4197710.

Test [1] has as its target T1, SmD3 protein trap (CPTI-002164) (Drosophila melanogaster (endogenous in embryos)) (UniProt O44437).
T1 sequence: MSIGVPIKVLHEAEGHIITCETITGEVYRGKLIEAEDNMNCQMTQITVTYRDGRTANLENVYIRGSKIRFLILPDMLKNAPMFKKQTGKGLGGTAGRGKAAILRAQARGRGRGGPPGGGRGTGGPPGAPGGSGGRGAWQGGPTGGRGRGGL
The test is described as follows: affinity purification with mass spectrometry; parallel one-step affinity purifications of the trapped protein from Drosophila embryonic extracts by the StrepTagII and either the 3×FLAG tag or YFP; co-purifying proteins identified by mass spectrometry; each pull-down performed at least twice.

The target in test [2] is T2, PKA-R2 protein trap (CPTI-001580) (Drosophila melanogaster (endogenous in embryos)) (UniProt P81900).
T2 sequence: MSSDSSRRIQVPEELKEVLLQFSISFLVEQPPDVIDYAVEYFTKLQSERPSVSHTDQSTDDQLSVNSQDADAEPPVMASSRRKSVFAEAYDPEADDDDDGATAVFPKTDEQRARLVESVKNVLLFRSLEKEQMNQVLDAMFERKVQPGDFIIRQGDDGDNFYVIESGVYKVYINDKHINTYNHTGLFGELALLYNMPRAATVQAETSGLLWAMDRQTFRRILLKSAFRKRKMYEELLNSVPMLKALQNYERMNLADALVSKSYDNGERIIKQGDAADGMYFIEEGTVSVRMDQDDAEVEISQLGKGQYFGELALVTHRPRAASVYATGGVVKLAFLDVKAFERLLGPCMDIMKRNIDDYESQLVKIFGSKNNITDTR
The description is as above.

No constants are given. Whether binding was seen depends on the method and setting. Binding seen in cells or lysates may run through a third protein. Here binding means that the protein was enriched with, or labelled near, the bait; the list need not be complete.

As for CG32152, the binding entry in test [1] was “binds”.

Turning to PKA-C1 (from UniProt P12370 1-353), in test [2], the binding result is “binds”.
